# Results taken from the supplement of paper PMC10849652.
# Chains of the proteins cited; added tags and fusions are not shown. Lines headed by an entry give the natural chain unless they say otherwise; changes in a name come on top.
# UniProt O76070, whole entry, looked up: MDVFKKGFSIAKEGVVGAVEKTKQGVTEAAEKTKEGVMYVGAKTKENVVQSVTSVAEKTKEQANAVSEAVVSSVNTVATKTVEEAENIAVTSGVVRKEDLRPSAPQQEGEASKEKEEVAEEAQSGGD
# UniProt O60271: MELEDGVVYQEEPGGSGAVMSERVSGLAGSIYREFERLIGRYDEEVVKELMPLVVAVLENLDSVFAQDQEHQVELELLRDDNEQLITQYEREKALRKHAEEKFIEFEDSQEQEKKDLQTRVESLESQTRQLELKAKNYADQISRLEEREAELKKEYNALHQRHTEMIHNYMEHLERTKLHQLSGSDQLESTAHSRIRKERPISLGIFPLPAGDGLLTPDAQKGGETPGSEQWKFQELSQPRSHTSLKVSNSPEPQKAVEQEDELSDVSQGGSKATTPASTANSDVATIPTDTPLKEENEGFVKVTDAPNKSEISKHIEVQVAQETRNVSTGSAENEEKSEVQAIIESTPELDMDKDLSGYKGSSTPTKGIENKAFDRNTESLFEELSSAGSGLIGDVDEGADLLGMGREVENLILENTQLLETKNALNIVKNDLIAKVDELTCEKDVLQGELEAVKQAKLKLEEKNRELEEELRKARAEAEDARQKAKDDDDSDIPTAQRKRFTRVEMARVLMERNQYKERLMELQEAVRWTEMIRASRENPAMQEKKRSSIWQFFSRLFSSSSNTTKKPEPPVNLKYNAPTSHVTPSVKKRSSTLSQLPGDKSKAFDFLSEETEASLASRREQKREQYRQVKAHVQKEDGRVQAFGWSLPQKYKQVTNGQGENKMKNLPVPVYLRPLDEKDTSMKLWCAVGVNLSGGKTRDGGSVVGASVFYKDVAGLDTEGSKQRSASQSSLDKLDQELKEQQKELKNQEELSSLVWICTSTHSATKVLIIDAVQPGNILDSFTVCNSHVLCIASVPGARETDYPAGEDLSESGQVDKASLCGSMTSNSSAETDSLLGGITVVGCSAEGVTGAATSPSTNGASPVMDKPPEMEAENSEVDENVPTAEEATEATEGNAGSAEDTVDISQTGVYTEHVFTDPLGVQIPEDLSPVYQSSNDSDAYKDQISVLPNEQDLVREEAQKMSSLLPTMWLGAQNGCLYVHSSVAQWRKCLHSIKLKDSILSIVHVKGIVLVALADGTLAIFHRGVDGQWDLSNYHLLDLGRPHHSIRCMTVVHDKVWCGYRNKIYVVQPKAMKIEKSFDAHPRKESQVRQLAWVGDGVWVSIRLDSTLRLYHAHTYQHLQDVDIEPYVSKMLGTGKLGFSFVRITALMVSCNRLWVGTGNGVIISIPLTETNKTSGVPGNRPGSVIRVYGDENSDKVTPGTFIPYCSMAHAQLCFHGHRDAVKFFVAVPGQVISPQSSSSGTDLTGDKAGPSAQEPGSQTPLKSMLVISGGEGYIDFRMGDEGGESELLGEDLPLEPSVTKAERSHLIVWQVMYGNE
# UniProt P62308, whole entry, looked up: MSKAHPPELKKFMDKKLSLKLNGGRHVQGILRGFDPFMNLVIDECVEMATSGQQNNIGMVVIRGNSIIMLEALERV
# UniProt O95347, whole entry, looked up: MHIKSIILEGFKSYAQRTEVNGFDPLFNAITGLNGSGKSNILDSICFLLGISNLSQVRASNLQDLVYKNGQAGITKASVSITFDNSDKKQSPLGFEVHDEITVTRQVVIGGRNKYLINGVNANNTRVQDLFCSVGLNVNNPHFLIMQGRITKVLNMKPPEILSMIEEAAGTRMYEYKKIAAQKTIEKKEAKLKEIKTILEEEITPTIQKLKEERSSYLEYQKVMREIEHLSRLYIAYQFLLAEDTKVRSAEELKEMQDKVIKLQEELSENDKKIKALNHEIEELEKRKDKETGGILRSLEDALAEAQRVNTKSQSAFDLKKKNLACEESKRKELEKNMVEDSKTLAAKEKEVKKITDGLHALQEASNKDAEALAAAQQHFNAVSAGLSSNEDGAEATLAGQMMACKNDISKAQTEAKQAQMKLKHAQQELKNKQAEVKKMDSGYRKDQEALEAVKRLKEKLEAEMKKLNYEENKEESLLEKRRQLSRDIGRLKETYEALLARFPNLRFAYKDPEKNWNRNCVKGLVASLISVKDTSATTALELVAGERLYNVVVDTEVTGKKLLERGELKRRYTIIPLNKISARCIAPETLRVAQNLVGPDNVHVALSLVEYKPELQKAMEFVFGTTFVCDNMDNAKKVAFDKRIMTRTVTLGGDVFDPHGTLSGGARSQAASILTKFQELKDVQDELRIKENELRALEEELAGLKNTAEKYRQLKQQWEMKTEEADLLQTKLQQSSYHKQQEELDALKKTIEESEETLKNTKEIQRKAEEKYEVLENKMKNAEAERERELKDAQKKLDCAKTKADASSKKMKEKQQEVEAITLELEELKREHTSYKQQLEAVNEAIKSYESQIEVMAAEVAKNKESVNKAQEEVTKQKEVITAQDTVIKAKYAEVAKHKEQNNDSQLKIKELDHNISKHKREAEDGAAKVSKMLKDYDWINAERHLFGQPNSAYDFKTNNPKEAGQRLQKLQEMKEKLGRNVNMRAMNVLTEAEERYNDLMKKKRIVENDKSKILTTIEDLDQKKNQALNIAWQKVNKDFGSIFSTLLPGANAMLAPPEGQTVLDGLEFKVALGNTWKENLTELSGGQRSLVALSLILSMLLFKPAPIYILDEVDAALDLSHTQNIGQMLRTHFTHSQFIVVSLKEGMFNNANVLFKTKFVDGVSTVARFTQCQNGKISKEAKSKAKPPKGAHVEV
# UniProt Q8WVK2: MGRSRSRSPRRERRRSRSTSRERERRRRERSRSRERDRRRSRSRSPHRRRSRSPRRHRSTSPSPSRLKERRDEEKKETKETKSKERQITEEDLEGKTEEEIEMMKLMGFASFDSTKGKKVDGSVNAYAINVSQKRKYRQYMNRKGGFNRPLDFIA
# UniProt O95149, whole entry, looked up: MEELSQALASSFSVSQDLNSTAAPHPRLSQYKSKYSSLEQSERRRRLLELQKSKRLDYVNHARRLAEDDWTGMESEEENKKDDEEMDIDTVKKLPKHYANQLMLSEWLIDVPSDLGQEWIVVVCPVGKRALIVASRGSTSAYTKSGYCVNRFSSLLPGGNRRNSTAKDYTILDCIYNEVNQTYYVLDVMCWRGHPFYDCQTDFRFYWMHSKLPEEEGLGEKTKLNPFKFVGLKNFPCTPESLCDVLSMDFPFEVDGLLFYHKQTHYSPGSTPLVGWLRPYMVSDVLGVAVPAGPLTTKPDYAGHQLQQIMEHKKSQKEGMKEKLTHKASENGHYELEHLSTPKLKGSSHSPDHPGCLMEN
# UniProt O60264, whole entry, looked up: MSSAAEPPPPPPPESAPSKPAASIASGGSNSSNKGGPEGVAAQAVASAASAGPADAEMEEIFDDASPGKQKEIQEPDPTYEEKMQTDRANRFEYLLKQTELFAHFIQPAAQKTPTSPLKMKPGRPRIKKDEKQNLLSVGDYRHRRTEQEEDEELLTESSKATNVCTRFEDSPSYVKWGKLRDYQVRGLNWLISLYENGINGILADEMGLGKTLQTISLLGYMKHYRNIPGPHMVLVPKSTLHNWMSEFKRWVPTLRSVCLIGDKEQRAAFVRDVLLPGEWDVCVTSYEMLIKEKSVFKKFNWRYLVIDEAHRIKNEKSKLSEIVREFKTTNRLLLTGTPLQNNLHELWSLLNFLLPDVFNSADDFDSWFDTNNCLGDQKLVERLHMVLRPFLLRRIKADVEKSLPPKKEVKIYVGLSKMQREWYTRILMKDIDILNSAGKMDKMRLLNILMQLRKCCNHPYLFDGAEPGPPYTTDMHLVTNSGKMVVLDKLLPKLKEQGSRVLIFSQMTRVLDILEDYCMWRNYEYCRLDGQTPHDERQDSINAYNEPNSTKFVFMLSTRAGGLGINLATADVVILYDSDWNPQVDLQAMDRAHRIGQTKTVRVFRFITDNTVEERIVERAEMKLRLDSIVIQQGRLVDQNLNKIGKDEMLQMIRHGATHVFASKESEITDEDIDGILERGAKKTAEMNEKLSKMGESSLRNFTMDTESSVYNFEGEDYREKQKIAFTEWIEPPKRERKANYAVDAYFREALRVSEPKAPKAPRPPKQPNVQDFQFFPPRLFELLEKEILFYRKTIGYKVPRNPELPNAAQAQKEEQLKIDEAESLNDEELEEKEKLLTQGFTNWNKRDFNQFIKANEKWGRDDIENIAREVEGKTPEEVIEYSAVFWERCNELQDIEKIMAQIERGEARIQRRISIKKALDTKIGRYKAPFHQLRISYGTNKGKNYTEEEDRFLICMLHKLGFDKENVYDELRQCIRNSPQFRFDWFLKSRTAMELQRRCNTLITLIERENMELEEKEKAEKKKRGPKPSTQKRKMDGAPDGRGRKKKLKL
# UniProt P62306, whole entry, looked up: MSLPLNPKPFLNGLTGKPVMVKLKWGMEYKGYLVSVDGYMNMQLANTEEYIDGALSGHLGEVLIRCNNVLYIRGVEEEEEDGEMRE
# UniProt Q9UQE7: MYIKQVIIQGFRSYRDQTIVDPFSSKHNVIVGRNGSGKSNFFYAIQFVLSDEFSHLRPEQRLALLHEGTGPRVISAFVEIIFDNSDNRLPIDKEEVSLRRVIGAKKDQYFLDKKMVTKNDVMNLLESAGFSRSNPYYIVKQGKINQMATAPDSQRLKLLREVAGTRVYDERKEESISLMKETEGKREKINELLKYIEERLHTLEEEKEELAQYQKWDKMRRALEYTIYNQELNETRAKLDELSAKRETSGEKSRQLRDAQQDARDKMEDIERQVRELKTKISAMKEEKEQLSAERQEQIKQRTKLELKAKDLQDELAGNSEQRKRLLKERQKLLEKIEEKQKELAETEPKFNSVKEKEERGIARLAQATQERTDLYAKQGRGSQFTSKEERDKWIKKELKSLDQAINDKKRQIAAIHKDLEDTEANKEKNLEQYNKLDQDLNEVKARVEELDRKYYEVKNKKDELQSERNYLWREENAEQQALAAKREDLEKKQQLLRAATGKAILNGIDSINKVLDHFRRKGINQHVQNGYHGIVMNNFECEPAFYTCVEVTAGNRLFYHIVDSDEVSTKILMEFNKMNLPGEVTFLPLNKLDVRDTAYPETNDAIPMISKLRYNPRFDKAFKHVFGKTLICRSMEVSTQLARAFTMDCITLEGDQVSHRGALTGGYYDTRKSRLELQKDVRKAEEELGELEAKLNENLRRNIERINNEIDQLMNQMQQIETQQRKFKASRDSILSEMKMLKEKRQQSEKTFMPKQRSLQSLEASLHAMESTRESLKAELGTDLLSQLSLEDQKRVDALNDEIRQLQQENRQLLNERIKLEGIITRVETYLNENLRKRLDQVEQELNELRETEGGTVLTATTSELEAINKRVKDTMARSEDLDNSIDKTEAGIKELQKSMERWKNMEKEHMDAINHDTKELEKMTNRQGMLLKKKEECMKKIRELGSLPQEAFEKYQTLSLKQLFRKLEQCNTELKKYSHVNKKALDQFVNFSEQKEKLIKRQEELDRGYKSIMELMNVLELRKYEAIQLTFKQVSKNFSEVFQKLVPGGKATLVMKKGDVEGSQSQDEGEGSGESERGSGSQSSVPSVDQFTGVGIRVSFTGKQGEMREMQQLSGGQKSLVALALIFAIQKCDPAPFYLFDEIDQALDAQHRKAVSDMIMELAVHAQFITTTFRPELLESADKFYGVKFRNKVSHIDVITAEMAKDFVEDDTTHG
# UniProt Q96H20: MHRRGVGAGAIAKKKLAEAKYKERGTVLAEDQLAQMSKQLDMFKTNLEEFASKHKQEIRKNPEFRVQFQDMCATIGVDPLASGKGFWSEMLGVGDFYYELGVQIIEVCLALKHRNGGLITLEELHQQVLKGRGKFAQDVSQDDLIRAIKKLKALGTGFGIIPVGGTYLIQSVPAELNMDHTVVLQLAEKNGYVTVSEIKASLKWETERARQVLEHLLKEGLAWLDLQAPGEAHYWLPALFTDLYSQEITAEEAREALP
# UniProt O75940: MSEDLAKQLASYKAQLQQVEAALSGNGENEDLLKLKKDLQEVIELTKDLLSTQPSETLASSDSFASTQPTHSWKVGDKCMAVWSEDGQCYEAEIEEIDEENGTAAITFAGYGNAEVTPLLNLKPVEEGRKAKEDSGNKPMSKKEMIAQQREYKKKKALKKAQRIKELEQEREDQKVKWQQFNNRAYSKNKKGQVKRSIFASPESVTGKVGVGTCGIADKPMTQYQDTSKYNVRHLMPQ
# UniProt P08579, whole entry, looked up: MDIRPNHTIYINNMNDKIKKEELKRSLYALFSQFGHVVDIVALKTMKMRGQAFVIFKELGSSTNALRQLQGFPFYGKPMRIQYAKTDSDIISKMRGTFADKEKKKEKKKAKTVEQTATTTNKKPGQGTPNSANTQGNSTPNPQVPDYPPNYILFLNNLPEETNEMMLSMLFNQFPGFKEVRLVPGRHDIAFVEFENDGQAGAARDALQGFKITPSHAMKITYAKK
# UniProt Q15506: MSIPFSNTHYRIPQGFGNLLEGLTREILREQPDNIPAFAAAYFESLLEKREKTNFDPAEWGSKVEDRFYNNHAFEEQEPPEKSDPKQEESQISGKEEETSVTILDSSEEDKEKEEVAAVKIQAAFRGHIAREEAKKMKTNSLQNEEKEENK
# This is one part of the list.
# Experiments:
# Assay in all cases: log2 fold change, soluble protein after heating vs DMSO (PISA); higher = thermal stabilisation; K562 cells, 10 uM, 30 min; active = over 0.2 and 3.5 SD of the protein, either way, in both replicates (recomputed)
# bafetinib = compound: Cc1ccc(NC(=O)c2ccc(CN3CC[C@H](N(C)C)C3)c(C(F)(F)F)c2)cc1Nc1nccc(-c2cncnc2)n1 [bafetinib]
# How it was run: (§1)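 Values are thermal stability changes relative to control samples and are taken from duplicates. They are stated as log2 fold changes. Before quantification by TMTpro 16plex LC-MS/MS with equalised channel sums, K562 cells at 2×10^6 cells/mL were treated with 10 μM compound for 30 min, heated in aliquots for 3 min across 48°C-58°C, pooled, extracted in PBS with 0.5% NP-40 at 4°C, and centrifuged at 21,000xg for 90 min to give the soluble supernatant.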
# [1] = compound: Cc1cccc(CC(=O)N2CCc3c2ccc(-c2cn(C)c4ncnc(N)c24)c3F)n1
# How it was run: as §1
# nilotinib = compound: Cc1cn(-c2cc(NC(=O)c3ccc(C)c(Nc4nccc(-c5cccnc5)n4)c3)cc(C(F)(F)F)c2)cn1 [nilotinib]
# How it was run: as §1
# [2] = compound: Cc1nc(Nc2n[nH]c3c2CN(C(=O)N[C@H](CN(C)C)c2ccccc2)C3(C)C)c2sccc2n1
# How it was run: as §1
# dasatinib = compound: Cc1nc(Nc2ncc(C(=O)Nc3c(C)cccc3Cl)s2)cc(N2CCN(CCO)CC2)n1 [dasatinib]
# How it was run: as §1
# [3] = compound: Cc1ncc(-c2ccnc(Nc3ccc(S(C)(=O)=O)cc3)n2)n1C(C)C
# How it was run: as §1
# [4] = compound: Cn1cc(-c2ccc3c(c2)CCN3C(=O)Cc2cccc(C(F)(F)F)c2)c2c(N)ncnc21
# How it was run: as §1
# [5] = compound: Cn1cc(-c2ccc3nnc(C(F)(F)c4ccc5ncccc5c4)n3n2)cn1
# How it was run: as §1
# tipifarnib = compound: Cn1cncc1[C@@](N)(c1ccc(Cl)cc1)c1ccc2c(c1)c(-c1cccc(Cl)c1)cc(=O)n2C [tipifarnib]
# How it was run: as §1
# mubritinib = compound: FC(F)(F)c1ccc(/C=C/c2nc(COc3ccc(CCCCn4ccnn4)cc3)co2)cc1 [mubritinib]
# How it was run: as §1
Target,log2 fold change (bafetinib),log2 fold change [1],log2 fold change (nilotinib),log2 fold change [2],log2 fold change (dasatinib),log2 fold change [3],log2 fold change [4],log2 fold change [5],log2 fold change (tipifarnib),log2 fold change (mubritinib)
SNCG (UniProt O76070),inactive: -0.019,inactive: -0.026,inactive: 0.01,inactive: 0.038,inactive: 0.046,inactive: 0.003,inactive: 0.01,inactive: 0.001,inactive: -0.035,inactive: 0.014
SPAG9 (UniProt O60271),inactive: -0.056,inactive: -0.014,inactive: -0.039,inactive: -0.074,inactive: -0.076,inactive: 0.015,inactive: -0.018,inactive: 0.012,inactive: -0.005,inactive: 0.054
SMARCC2 (UniProt Q8TAQ2),inactive: -0.06,inactive: 0.033,inactive: -0.043,inactive: -0.009,inactive: -0.14,inactive: 0.048,inactive: -0.048,inactive: 0.168,inactive: -0.097,inactive: 0.175
SNAP29 (UniProt O95721),inactive: -0.053,inactive: -0.059,inactive: 0.014,inactive: 0.002,inactive: 0.01,inactive: -0.015,inactive: 0.002,inactive: -0.007,inactive: 0.022,inactive: 0.019
SNRPG (UniProt P62308),inactive: -0.019,inactive: -0.086,inactive: 0.005,inactive: 0.075,inactive: 0.053,inactive: 0.04,inactive: -0.016,inactive: -0.013,inactive: 0.009,inactive: 0.004
SNRPC (UniProt Q5TAL2),inactive: 0,inactive: -0.088,inactive: 0.135,inactive: 0.038,inactive: 0.19,inactive: 0.061,inactive: 0.064,inactive: -0.091,inactive: 0.034,inactive: 0.046
SP3 (UniProt Q02447),inactive: 0.022,inactive: -0.018,inactive: -0.01,inactive: 0.093,inactive: 0,inactive: -0.042,inactive: -0.044,inactive: 0.103,inactive: -0.041,inactive: -0.045
SMC2 (UniProt O95347),inactive: 0.016,inactive: 0,inactive: -0.05,inactive: -0.011,inactive: -0.1,inactive: 0.053,inactive: -0.02,inactive: -0.004,inactive: -0.044,inactive: 0.014
"SMIM26, A0A096LP01",inactive: -0.045,inactive: 0.107,inactive: 0.036,inactive: 0.022,inactive: 0.017,inactive: -0.015,inactive: 0.015,inactive: 0.022,inactive: -0.074,inactive: 0.008
SNRNP27 (UniProt Q8WVK2),inactive: -0.015,inactive: -0.079,inactive: 0.087,active: -0.487,inactive: 0.045,inactive: -0.064,inactive: -0.078,inactive: 0.031,inactive: 0.032,inactive: 0.059
SNUPN (UniProt O95149),inactive: -0.031,inactive: 0.006,inactive: -0.025,inactive: -0.009,inactive: -0.051,inactive: 0.018,inactive: 0.013,inactive: -0.054,inactive: 0.003,inactive: 0.06
SLC9A3R2 (UniProt Q15599),inactive: -0.031,inactive: -0.009,inactive: 0.014,inactive: -0.057,inactive: -0.02,inactive: 0.009,inactive: 0.002,inactive: 0.012,inactive: 0.006,inactive: 0.024
SP100 isoform 4 (UniProt P23497),inactive: -0.047,inactive: -0.056,inactive: -0.02,inactive: -0.061,inactive: -0.054,inactive: -0.057,inactive: 0.02,inactive: 0.026,inactive: -0.087,inactive: 0.043
SMARCA5 (UniProt O60264),inactive: -0.052,inactive: 0.001,inactive: -0.019,inactive: -0.152,inactive: -0.052,inactive: 0.002,inactive: -0.088,inactive: -0.112,inactive: -0.022,inactive: 0.184
SMC5 (UniProt Q8IY18),inactive: 0.02,inactive: -0.029,inactive: 0,inactive: -0.095,inactive: 0.05,inactive: 0.082,inactive: 0.006,inactive: -0.102,inactive: 0.032,inactive: -0.004
SNRPF (UniProt P62306),inactive: -0.026,inactive: 0.085,inactive: 0.084,inactive: -0.006,inactive: 0.062,inactive: 0.035,inactive: -0.134,inactive: -0.122,inactive: 0.01,inactive: -0.015
SNX6 (UniProt Q9UNH7),inactive: -0.132,inactive: 0.138,inactive: -0.214,inactive: 0.012,inactive: -0.176,active: -0.47,inactive: 0.094,inactive: 0.019,inactive: -0.045,inactive: 0.058
SMC3 (UniProt Q9UQE7),inactive: 0.026,inactive: 0.022,inactive: 0.024,inactive: -0.097,inactive: -0.045,inactive: -0.047,inactive: 0.02,inactive: 0.008,inactive: 0.021,inactive: 0.025
SNF8 (UniProt Q96H20),inactive: -0.151,inactive: 0.04,inactive: 0.014,inactive: -0.033,inactive: 0.006,inactive: -0.009,inactive: 0.001,inactive: -0.004,inactive: 0.059,inactive: 0.025
SMNDC1 (UniProt O75940),inactive: -0.013,inactive: -0.062,inactive: 0.051,inactive: 0.15,inactive: 0.095,inactive: 0.16,inactive: -0.048,inactive: -0.069,inactive: 0.046,inactive: -0.064
SMYD3 (UniProt Q9H7B4),inactive: 0.08,inactive: -0.006,inactive: -0.074,inactive: -0.06,inactive: -0.034,inactive: 0.102,inactive: -0.053,inactive: -0.136,inactive: -0.002,inactive: 0.105
SNCA (UniProt P37840),inactive: -0.023,inactive: -0.019,inactive: 0.001,inactive: 0.031,inactive: 0.01,inactive: 0,inactive: 0.085,inactive: 0.014,inactive: -0.048,inactive: 0.063
SNRPB2 (UniProt P08579),inactive: -0.034,inactive: -0.081,inactive: 0.04,inactive: 0.048,inactive: 0.075,inactive: 0.135,inactive: -0.116,inactive: -0.025,inactive: 0.084,inactive: 0.045
SPA17 (UniProt Q15506),inactive: -0.063,inactive: 0.021,inactive: -0.01,inactive: 0.03,inactive: 0.059,inactive: 0.004,inactive: -0.119,inactive: 0.045,inactive: 0.045,inactive: 0.073
SNRPB isoform 3 (UniProt P14678),inactive: 0.064,inactive: 0.021,inactive: 0.058,inactive: 0.047,inactive: 0.133,inactive: 0.151,inactive: -0.085,inactive: -0.069,inactive: 0.061,inactive: -0.054
SPAG5 (UniProt Q96R06),inactive: 0.111,inactive: -0.055,inactive: -0.105,inactive: -0.172,inactive: -0.007,inactive: 0.046,inactive: -0.156,inactive: -0.04,inactive: -0.091,inactive: -0.257

# Some of the entries above in a different format:
Target | log2 fold change (bafetinib) | log2 fold change [1] | log2 fold change (nilotinib) | log2 fold change [2] | log2 fold change (dasatinib) | log2 fold change [3] | log2 fold change [4] | log2 fold change [5] | log2 fold change (tipifarnib) | log2 fold change (mubritinib)
SMNDC1 (UniProt O75940) | inactive: -0.013 | inactive: -0.062 | inactive: 0.051 | inactive: 0.15 | inactive: 0.095 | inactive: 0.16 | inactive: -0.048 | inactive: -0.069 | inactive: 0.046 | inactive: -0.064
SPAG5 (UniProt Q96R06) | inactive: 0.111 | inactive: -0.055 | inactive: -0.105 | inactive: -0.172 | inactive: -0.007 | inactive: 0.046 | inactive: -0.156 | inactive: -0.04 | inactive: -0.091 | inactive: -0.257
